From the supplement of paper PMC10338343
± gives the standard deviation. The list shows a part of the results, in another mix than the full data. Many of these values have a large error.

system: MILI (PIWIL2) piRISC loaded with piRNA #1 (26 nt); assay: pre-steady-state target cleavage rate (min^-1); MIWI and MILI are mouse PIWI proteins and EfPiwi is from a freshwater sponge; tags in brackets are library labels; higher = faster piRNA-guided slicing of the target; details: guide: piRNA #1 5'p-UGAGGUAGUAGGUUGUAUAGUAUCCA; auxiliary factor: 500 nM mouse GTSF1
Method in brief: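 Cleave-'n-Seq used a transcribed, DNA-blocked target RNA library at 0.1 nM and active affinity-purified piRISC with one synthetic guide at 1 nM, with or without 500 nM GTSF1 partner protein, in HEPES–potassium acetate buffer at 33 °C for 0–8 or 0–960 min. Uncleaved targets were sequenced and normalised to depth and to weakly complementary targets, and three trials were pooled with k3 capped at 0.0001 min^-1. The pre-steady-state cleavage rate was estimated by a burst-and-steady-state fit.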

Sequence | pre-steady-state target cleavage rate
GGAGUGGAUACUUUACAUCCUACUACCUCA | 0.253 ± 0.012
GGAGACCUAACUAUACAACCUACUACCUUA | 0.12 ± 0.028
GGAGACCUAACUAUACAACCUUCUACCUCA | 0.00302 ± 0.0055
GGAGACCUAUCUAUACAACCAACUACCUGA | 0.00256 ± 0.0037
GGAGAGGAUACUAUUGUACCUACUACCUCA | 0.131 ± 0.0096
GGAGACCAUACUAUACAACCUACGACCUCA | 0.137 ± 0.018
GGAGACCAUAGUAUACUACCUACUACCUCA | 0.131 ± 0.013
GGAGACCUAUGAUAUGAACCAUCUACCUCA | 0.00011 ± 0.029
GGAGUGGAUACUAAACAACCUACUACCUCA | 0.168 ± 0.0092
GGAGACCUAACUAUACAACCUAGUAGCUCA | 0.00103 ± 0.013
GGAGACCUAUGAUAUCAACCUACAAGCUCA | 0.000256 ± 0.012
GGAGUAGGAUACUAUACAACCUACUACCUCA | 0.145 ± 0.016
GGAGACCUAUGUAUACAACCUUGAUGGAGA [g10:g19:cont:t1A] | 0.000328 ± 0.013
GGAGUGGAUACUAUACAACCUAGAACCUCA | 0.0036 ± 0.0022
GGAGACCUAUGAUAUCAACCUACUAGCUGA | 0.00076 ± 0.0057
GGAGACCUAUGAUAUGAACCCACUACCUCA | 0.000255 ± 0.014
GGAGACCUAUGAUAUGUACCUACCUACCUCA | 0.000263 ± 0.011
GGAGACCUAUGAUAUCAACCUACAACCUGA | 0.00031 ± 0.011
GGAGACCUUACUAAACAACCUACUACCUCA | 0.112 ± 0.012
GGAGACCUAUGUAUACAAGGAUGAUGGAGA [g13:g19:cont:t1A] | 0.0001 ± 0.023

Sequence | pre-steady-state target cleavage rate
GGAGAGGAUCUAUACAACCUACUACCUCA | 0.171 ± 0.013
GGAGAGGAUACUAUACAACCUACUUCCACA | 0.00294 ± 0.0036
GGAGAGGAUACUAUACAACCUUCUAGCUCA | 0.00136 ± 0.0037
GGAGACCUAUGAUUACAACCUACUUGCUCA | 0.00176 ± 0.0048
GGAGAGGAUACUAUACAACCUAGUACCACA | 0.000893 ± 0.0082
GGAGACCUAUGAUUACAACCAUGAUGGAGA [g11:g17:cont:t1A] | 0.000175 ± 0.017
GGAGACCUAUGAUUACAACCUACUAGCACA | 0.0011 ± 0.0055
GGAGAGGAUACUAUACACCCUACUACCUCA | 0.122 ± 0.015
GGAGAGGAAACUAUACAACCUACUUCCUCA | 0.00168 ± 0.012
GGAGACCUAUCUAUACAACCUACAUGGAGA [g8:g20:cont:t1A] | 0.00152 ± 0.0053
GGAGACCAUACUAUACAACCAACUAGCUCA | 0.00107 ± 0.005
GGAGACCUAUGAAUACCAACCUACUACCUCA | 0.00269 ± 0.0026
GGAGACCUAUGAUAUGUUCCUAGAACCUCA | 0.00014 ± 0.016
GGAGACCUUACUAUACAACCUACUACCCUCA | 0.17 ± 0.019
GGAGACCUAUGAUAUGAACCAUACUACCUCA | 0.000246 ± 0.012
GGAGACCUAUGAUAACAGACCUACUACCUCA | 0.00064 ± 0.0097
GGAGUGGUUACUAUACAACCUACUACCUCA | 0.186 ± 0.0089
GGAGACCUAUGAUAUCAACCUACAACCACA | 0.000694 ± 0.0086
GGAGACCUAUGAUUAGAACCUACUAGCUCA | 0.000116 ± 0.032
GGAGACCUAUGAUAACAACCUACUACCUCG [g2:g16:cont:t1G] | 0.00536 ± 0.0027
